Results are given in words; binding and its absence hold for the method and conditions named. Binding can be weak; no strength is given. Sequences can lack the tags named with a protein. For some of these results: In cells and extracts the contact can be indirect. Each block holds one molecule with its values, some of them ahead of it.
What was measured:
[1] = biological target: T1, BTB-A2.1 (AT5G41330), yeast two-hybrid fusion (Arabidopsis thaliana) (UniProt Q9FN67); experiment: two-hybrid; AD (pGADT7) and BD (pGBKT7) fusions co-transformed into yeast strain AH109; growth on SD-WL or SD-WLHA at dilutions 10^-1, 10^-2, 10^-3, 30 °C, 3-5 days
T1 sequence: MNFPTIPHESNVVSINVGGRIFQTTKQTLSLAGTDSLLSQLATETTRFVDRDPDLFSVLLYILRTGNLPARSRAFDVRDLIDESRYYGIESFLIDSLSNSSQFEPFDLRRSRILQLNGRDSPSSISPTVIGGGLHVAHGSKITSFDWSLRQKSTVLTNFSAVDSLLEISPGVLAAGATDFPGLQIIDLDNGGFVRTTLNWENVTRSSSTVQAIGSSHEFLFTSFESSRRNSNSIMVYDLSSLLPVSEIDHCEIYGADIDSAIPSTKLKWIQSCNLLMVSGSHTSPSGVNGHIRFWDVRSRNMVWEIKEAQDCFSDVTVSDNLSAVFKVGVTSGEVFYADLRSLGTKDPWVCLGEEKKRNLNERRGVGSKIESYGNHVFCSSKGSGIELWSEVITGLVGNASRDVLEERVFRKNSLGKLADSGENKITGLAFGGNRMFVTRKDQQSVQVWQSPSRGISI

[2] = biological target: BTB-A2.2 (AT3G09030), yeast two-hybrid fusion (Arabidopsis thaliana); experiment: as above
[3] = biological target: BTB-A2.2-cYFP (Arabidopsis thaliana); experiment: split reporter; BiFC with cYFP and nYFP fusions in Nicotiana benthamiana leaves infiltrated with A. tumefaciens GV3101; confocal microscopy 48-72 h after infiltration

Molecule: BTB-A2.2 (AT3G09030), yeast two-hybrid fusion (Arabidopsis thaliana)
binding [1]: binds

B1: SnRK2.2, yeast two-hybrid fusion (enzyme, UniProt Q39192 1-362)
chain: MDPATNSPIMPIDLPIMHDSDRYDFVKDIGSGNFGVARLMTDRVTKELVAVKYIERGEKIDENVQREIINHRSLRHPNIVRFKEVILTPSHLAIVMEYAAGGELYERICNAGRFSEDEARFFFQQLISGVSYCHAMQICHRDLKLENTLLDGSPAPRLKICDFGYSKSSVLHSQPKSTVGTPAYIAPEILLRQEYDGKLADVWSCGVTLYVMLVGAYPFEDPQEPRDYRKTIQRILSVTYSIPEDLHLSPECRHLISRIFVADPATRITIPEITSDKWFLKNLPGDLMDENRMGSQFQEPEQPMQSLDTIMQIISEATIPTVRNRCLDDFMADNLDLDDDMDDFDSESEIDVDSSGEIVYAL
binding [2]: no binding

Continued, values first:

binding [3]: binds
B2: SnRK2.3-nYFP (enzyme, UniProt Q39193 1-361)
chain: MDRAPVTTGPLDMPIMHDSDRYDFVKDIGSGNFGVARLMRDKLTKELVAVKYIERGDKIDENVQREIINHRSLRHPNIVRFKEVILTPTHLAIIMEYASGGELYERICNAGRFSEDEARFFFQQLLSGVSYCHSMQICHRDLKLENTLLDGSPAPRLKICDFGYSKSSVLHSQPKSTVGTPAYIAPEVLLRQEYDGKIADVWSCGVTLYVMLVGAYPFEDPEEPRDYRKTIQRILSVKYSIPDDIRISPECCHLISRIFVADPATRISIPEIKTHSWFLKNLPADLMNESNTGSQFQEPEQPMQSLDTIMQIISEATIPAVRNRCLDDFMTDNLDLDDDMDDFDSESEIDIDSSGEIVYAL

binding [2]: binds
B3: SnRK2.3, yeast two-hybrid fusion (enzyme, UniProt Q39193 1-361)
chain: B2 chain

From PMC7246803
